# Reference: PubChem BioAssay AID493014 (National Center for Advancing Translational Sciences (NCATS), 2011)
# Hit rate of the full screen: of about 340,000 compounds, about 170 (0.05%) were called active. The shares of active, inactive and inconclusive entries below differ from those in the screen. The call rests on the fitted dose curve; in most records, active means well fitted inhibition curve with a large enough effect in the signal ratio, with a control signal flat (not every such curve was filed as active); inconclusive means small, poorly fitted or top-dose-only effect, or effect the other way, or a change in a side signal; inactive means flat fitted curve, though single readings scatter; the % refers to the signal ratio. Where the call is inconclusive, the potency comes from a doubtful curve fit.
# Assay: qHTS Assay to Find Inhibitors of Chronic Active B-Cell Receptor Signaling;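 on activity change, negative = inhibition: plate controls were basal doxycycline-induced cells for no effect and cells given 10 µM MG132 for full effect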
# Conditions: ABC-DLBCL IkBa-CBG/CBR reporter, luminescence ratio (green luciferase fused to IkBa over red control in TMD8 lymphoma cells), 4 h; activity change, negative = inhibition: at 46.1 µM (top of the series) unless noted
# How it was run: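 TMD8 human ABC-DLBCL cells with doxycycline-inducible IκBα–green luciferase fusion and unfused red luciferase, in 0.5% FBS medium; compounds up to 46 uM, 4 h at 37C. Green/red luminescence ratio, filter-overlap corrected, fitted to concentration-response curves.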
# Potency means the concentration at half of the fitted maximal effect.
Compound,"activity change, negative = inhibition",Potency
O=C(NNc1c(Cl)cccc1Cl)C1CCC1,inconclusive: -182%,
O=C(Nc1cccc(Cl)c1Cl)c1ccncc1,,"inconclusive: 25.9 µM [falling, single point]"
COc1ccc(-n2c(C)cc(C(=O)COc3ccc(C)nc3[N+](=O)[O-])c2C)cc1,inactive: -18.5%,
COCC1CCN(C(=O)c2cc(COc3ccccc3SC)on2)C1 (stereo not given),inactive: 1.73%,
Cc1cc(/C=N/NC(N)=S)c(O)c(/C=N/NC(N)=S)c1,inconclusive: -34%,
COC/C=C/C1=CC(=O)C[C@H](c2ccc3c(c2)OCO3)C1,inactive: -1.74%,
Cc1ccc(C(=O)CSc2nnc(-c3cccnc3)n2N)cc1,inconclusive: -18.1%,
O=C(Nc1ccc2c(c1)OCO2)c1cc(-c2ccccc2Cl)on1,,"inconclusive: 0.891 µM [falling, partial curve, poor fit]"
COc1ccc2c(c1)CCCC21NC(=O)N(CC(=O)c2cc(F)ccc2F)C1=O (stereo not given),inconclusive: -0.412%,
Cc1noc(/C=C/c2ccco2)c1S(=O)(=O)N1CCC(C(=O)N2CCc3ccccc32)CC1,,"inconclusive: 1.16 µM [rising, partial curve, poor fit]"
COc1ccc(Cl)cc1NC(=O)NC(C)c1ccncc1 (stereo not given),inactive: 0.576%,
COc1ccc(CNC(=O)C(C)OC(=O)C23CC4CC(CC(O)(C4)C2)C3)cc1 (stereo not given),inconclusive: 6.1%,
O=C(CSc1nncc2ccccc12)Nc1cccc(O)c1,,"inconclusive: 20 µM [falling, partial curve, poor fit]"
O=C(CCc1nc(-c2ccccc2F)no1)Nc1ccc(Oc2ccccc2)cc1,,"inconclusive: 5.01 µM [falling, partial curve]"
CCOCCCNC(=O)CCc1nnc2ccc(N3CCCCC3)nn12,inactive: 0.82%,
COc1ccccc1N(CC(=O)NC1CCCCC1)S(=O)(=O)c1cccs1,inconclusive: -16.7%,
CCNC(=S)N(Cc1cc2cc(C)cc(C)c2[nH]c1=O)C1CCCC1,inactive: -2.27%,
COc1ccccc1NC(=O)Cn1nnc(C(=O)NCc2ccc3c(c2)OCO3)c1N,,"inconclusive: 20 µM [falling, partial curve, poor fit]"
O=C(NC(=S)Nc1ccccc1Br)c1ccco1,inconclusive: 4.06%,
COC(=O)COc1cccc(NC(=O)c2ccccc2)c1,inconclusive: -14.8%,
CC(=O)c1sccc1NC(=O)CC(C)(C)CC(=O)O,inconclusive: 14.3%,
COc1cc(C)c(C(=O)Oc2cc(C)c(C(=O)O)c(O)c2C)c(O)c1C(=O)O,inactive: -2.59%,

# Five structures already listed, sorted by molar mass, low to high.
Compound,"activity change, negative = inhibition",Potency
O=C(Nc1cccc(Cl)c1Cl)c1ccncc1,,"inconclusive: 25.9 µM [falling, single point]"
COC(=O)COc1cccc(NC(=O)c2ccccc2)c1,inconclusive: -14.8%,
COC/C=C/C1=CC(=O)C[C@H](c2ccc3c(c2)OCO3)C1,inactive: -1.74%,
O=C(Nc1ccc2c(c1)OCO2)c1cc(-c2ccccc2Cl)on1,,"inconclusive: 0.891 µM [falling, partial curve, poor fit]"
COc1ccc2c(c1)CCCC21NC(=O)N(CC(=O)c2cc(F)ccc2F)C1=O (stereo not given),inconclusive: -0.412%,

# In a second layout: entries from further up.
Compound	activity change, negative = inhibition	Potency
COCC1CCN(C(=O)c2cc(COc3ccccc3SC)on2)C1 (stereo not given)	inactive: 1.73%	
Cc1cc(/C=N/NC(N)=S)c(O)c(/C=N/NC(N)=S)c1	inconclusive: -34%	

# Remaining list, next part

Compound,"activity change, negative = inhibition",Potency
Cc1ccc(Nc2nc(-c3cccs3)cs2)nc1,,"inconclusive: 20 µM [falling, partial curve]"
CCOC(=O)C1=CN(Cc2cccc(F)c2)S(=O)(=O)NC1CCc1ccccc1 (stereo not given),inactive: -1.51%,
COc1ccc(/C=N/Nc2cc(C)nc3ccccc23)cc1,inconclusive: -29.2%,
COc1ccc(NC(=O)Cc2ccc(C)c(C)c2)cc1Cl,inconclusive: -8.88%,
CCCn1c(SCC(=O)c2cc(C)n(-c3ccc4c(c3)OCO4)c2C)n[nH]c1=O,inconclusive: -20.6%,
Cc1ccc2[nH]c(O)c(N=Nc3ccccc3C)c2c1,,"inconclusive: 35.5 µM [falling, partial curve, poor fit]"
Cc1ccc(/C=C2\CC(C)CC3=C2NC(=S)NC3c2ccc(C)cc2)cc1 (stereo not given),inactive: -2.43%,
COc1ccc(-c2nn(-c3ccccc3)cc2/C=N/O)cc1OC,,"inconclusive: 25.1 µM [falling, partial curve, poor fit]"
COc1cc([N+](=O)[O-])ccc1NC(=O)CN1CCN(C(=O)c2ccco2)CC1,inactive: -3.66%,
O=C(CN1CCN(c2ccc(Cl)cc2)CC1)NCc1ccccc1,inactive: 13.2%,
CC(=O)C1C(=O)c2c(cccc2[N+](=O)[O-])C1=Nc1ccc(S(N)(=O)=O)cc1 (stereo not given),inactive: -0.515%,
CCn1cc(C(=O)Nc2cccc(C)c2)c(=O)c2ccc(C)nc21,inconclusive: 8.63%,
CC1(C)CC(=O)C2=C(C1)NC(=O)CC2c1cccc(F)c1 (stereo not given),inconclusive: -1.89%,
COc1ccccc1N=Nc1c(C)n[nH]c1C,inconclusive: -10.3%,
CN(CC1CCCO1)S(=O)(=O)c1ccc(C(=O)Nc2ccc([N+](=O)[O-])cc2)cc1 (stereo not given),inconclusive: 3.23%,
CCOC(=O)C(C(=O)Nc1cccc(C)n1)C1CCCCC1 (stereo not given),inconclusive: 16.9%,
CC(C)Nc1nc(-c2ccccn2)nc(-c2ccccc2)c1C#N,inactive: 4.78%,
COc1ccccc1NS(=O)(=O)c1ccc(NN=C2CCCCC2)c([N+](=O)[O-])c1,inconclusive: -19.1%,
Cc1nc(-c2c(C(=O)NNC(=O)Nc3c(C)cccc3C)noc2C)cs1,inconclusive: -6.85%,
CCCCOC(=O)c1ccc(NC(=O)C(=O)NCc2ccccn2)cc1,inconclusive: 7.49%,
FC(F)(F)Oc1ccccc1-c1nnc(-c2cccc(C(F)(F)F)c2)o1,inconclusive: 15.2%,
CCc1c(C(=O)NNC(=S)NCc2ccccc2)csc1C,inactive: -0.869%,

Compound,"activity change, negative = inhibition",Potency
N#CCCN(C(=O)COC(=O)Cc1c[nH]c2ccccc12)c1ccccc1,inconclusive: 2%,
COc1ccc(S(=O)(=O)N2CCC(C(=O)Nc3ccc(S(=O)(=O)N4CCCC4)cc3)CC2)cc1OC,inactive: 11.4%,
Cn1c(SCC(=O)Nc2ccccc2F)nc2c(c1=O)SCC2,inconclusive: -1.88%,
COc1ccc(/C=N/NC(=O)COc2ccc(Cl)cc2Cl)cc1Cn1nc(C)cc1C,inconclusive: 3.28%,
COc1ccccc1CN1CCN(Cc2ccc3ccccc3c2)CC1,inconclusive: 1.17%,
Nc1nc2ccc(C(=O)Nc3ccc(N4CCOCC4)cc3)cc2s1,,"inconclusive: 13 µM [falling, partial curve]"
O=C(Nc1ccccn1)c1ccc(S(=O)(=O)N2CCCCCC2)cc1,inconclusive: 10.6%,
CCOC(=O)C1=C(C)OC(N)=C(C#N)C1c1ccccc1 (stereo not given),inactive: 14.3%,
CCC(CC)c1nc(C(N)=O)c2[nH]c(=O)n(-c3ccc(OC)c(OC)c3)c2n1,inconclusive: -18%,
Cc1c(NS(=O)(=O)c2ccccc2F)c(=O)n(-c2ccccc2)n1C,inconclusive: -8.6%,
Cc1ccc(N2CC(C(=O)N3CCC(C(=O)Nc4nnc(C(C)(C)C)s4)CC3)CC2=O)cc1 (stereo not given),inactive: 5.23%,
Cc1cc(C)n2nc(SCc3ncc(-c4ccccc4)o3)nc2n1,inconclusive: 1.24%,
CCc1ccc(NC(=O)c2onc(C)c2Cl)cc1,inconclusive: -21.9%,
CSc1ccc(/C=N/Nc2ccc(Cl)c(C(=O)O)c2)cc1,,"inconclusive: 2.82 µM [falling, full curve, poor fit]"
Cc1cc(=O)[nH]c(SCCCOc2ccccc2Cl)n1,inconclusive: 2.43%,
Cc1csc(Nc2nc(N)c(C(=O)Nc3ccccc3)o2)n1,inconclusive: 10.6%,
Nc1[nH]ncc1-c1ccccc1,,"inconclusive: 20 µM [falling, partial curve, poor fit]"
CCC(C)C(NC(=O)c1ccccc1)C(=O)Nc1ccc(S(=O)(=O)Nc2cc(C)nc(C)n2)cc1 (stereo not given),inactive: 0.122%,
CC1=C(C(=O)OCc2ccc3c(c2)OCO3)C(c2ccccc2OCc2ccccc2)NC(=O)N1 (stereo not given),inconclusive: 13.1%,
CC1(c2ccccc2Cl)NC(=O)N(CC(=O)NC(=O)NCc2ccco2)C1=O (stereo not given),inconclusive: -4.93%,
O=C(Nc1ccc(S(=O)(=O)N2CCOCC2)cc1)c1ccccc1F,inactive: -3.52%,
CCOC(=O)C1=C(C)N=C2SC(CC)C(=O)N2C1c1cccc(F)c1 (stereo not given),inconclusive: -6.85%,

Compound,"activity change, negative = inhibition",Potency
COC(=O)C1=C(C)n2nnnc2NC1c1ccc(Cl)cc1 (stereo not given),inactive: -25%,
COc1cccc(CC(=O)Nc2ncc(C)s2)c1,inconclusive: 12.6%,
O=C(Cc1ccc([N+](=O)[O-])cc1)c1ccc(O)cc1O,inactive: 1.71%,
O=C(CNC(=O)c1cc(Cl)cc([N+](=O)[O-])c1)OCC(=O)N1CCCCC1,inconclusive: 3.6%,
Cc1ccc(CNC(=O)COC(=O)CSc2ccc(Br)cc2C)cc1,inconclusive: 7.35%,
CCC/C(O)=C1\C(=O)CCCC1=NCCc1c(C)[nH]c2ccc(OC)cc12,inconclusive: 22.7%,
Cc1cc(C)n(-c2nc3ccccc3nc2N2CCN(S(=O)(=O)c3ccc4ccccc4c3)CC2)n1,inactive: -1.77%,
O=C1CCCC2=C1C(c1ccc(Cl)cc1)C1C(=O)c3ccccc3C1=N2 (stereo not given),,"inconclusive: 17.8 µM [rising, partial curve, poor fit]"
Cc1cccc2nc(COc3ccc4ccccc4c3Br)cn12,,"inconclusive: 22.4 µM [falling, single point]"
O=c1cc(CN2CCN(Cc3ccccc3)CC2)c2cc3c(cc2o1)CCC3,inactive: -1.65%,
CC(OC(=O)c1ccc2ncsc2c1)C(=O)NCc1ccccc1 (stereo not given),,"inconclusive: 16.4 µM [falling, partial curve, poor fit]"
COc1ccc(Cc2nnc(SCc3c(C)noc3C)n2C2CCCCC2)cc1OC,,"inconclusive: 11.2 µM [falling, single point]"
CCn1cc(CCCC(=O)NCc2ccc(OC)cc2)c2ccccc21,inactive: -2.47%,
FC(F)(F)c1cc(-c2ccco2)nc(N2CCN(c3ccccc3)CC2)n1,inconclusive: 18.9%,
Cc1cc(N2CCN(Cc3nc(-c4ccc(Cl)cc4)oc3C)CC2)cc(C)n1,inactive: 1.55%,
CCCOc1ccc(/C(O)=C2/C(=O)C(=O)N(CCCn3ccnc3)C2c2ccc(C)o2)cc1 (stereo not given),inactive: 1.57%,
C[C@H](NC(=O)c1[nH]cnc1C(=O)Nc1ccc(Cl)cc1)c1ccccc1,inconclusive: 11.2%,
C1COCCNCCOCCOCCN1,inconclusive: 1.22%,
CCC1=NN(C(=O)c2ccc(Cl)cc2)C(O)(c2ccc(C)cc2)C1 (stereo not given),,"inconclusive: 15.8 µM [falling, single point]"
